Results published in patent US20180044434A1.
Results are given in words; binding and its absence hold for the method and conditions named. Some entries that bind do so weakly or less than the wild type.

Chains of the proteins cited; added tags and fusions are not shown. Lines headed by an entry give the natural chain unless they say otherwise; changes in a name come on top.
UniProt Q9UM07: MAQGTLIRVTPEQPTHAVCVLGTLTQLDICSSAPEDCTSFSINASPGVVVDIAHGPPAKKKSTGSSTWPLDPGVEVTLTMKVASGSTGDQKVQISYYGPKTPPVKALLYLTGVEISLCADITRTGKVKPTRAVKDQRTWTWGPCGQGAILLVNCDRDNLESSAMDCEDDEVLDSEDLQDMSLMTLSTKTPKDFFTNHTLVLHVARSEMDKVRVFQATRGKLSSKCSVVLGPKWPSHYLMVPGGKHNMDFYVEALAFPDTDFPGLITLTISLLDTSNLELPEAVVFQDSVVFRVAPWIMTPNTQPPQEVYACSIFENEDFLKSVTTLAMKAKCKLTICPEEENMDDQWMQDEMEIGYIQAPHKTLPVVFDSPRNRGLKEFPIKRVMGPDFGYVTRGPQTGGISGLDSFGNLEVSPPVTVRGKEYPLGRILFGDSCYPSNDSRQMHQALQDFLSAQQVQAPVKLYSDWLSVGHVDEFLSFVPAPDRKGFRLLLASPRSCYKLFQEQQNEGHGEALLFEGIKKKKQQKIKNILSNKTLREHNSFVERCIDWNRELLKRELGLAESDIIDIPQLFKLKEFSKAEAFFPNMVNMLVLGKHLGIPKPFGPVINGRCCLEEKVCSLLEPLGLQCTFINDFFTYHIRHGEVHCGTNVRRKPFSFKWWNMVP

B1: humanized anti-PAD4 antibody derived from G8, VH H4.15 / VL L4.00 (antibody, human IgG1, kappa, V domains shown)
VH: EVQLLESGGGLVQPGGSLRLSCAASGFTFSTYAMGWVRQAPGKGLEFVSAIRNDGSWTGYGAAVKGRFTISRDNSKNTVYLQMNSLRAEDTAVYYCAKYTGSSGGSIGAWGQGTLVTVSS
VL: SYELTQPPSVSVSPGQTARITCSGGNRNYYYGWYQQKPGQAPVLVIYANDKRPSGIPERFSGSSSGTTVTLTISGVQAEDEADYYCGTADTGKYVFGGGTKLTVLG
B2: humanized anti-PAD4 antibody derived from G8, VH H4.15 / VL L4.06 (antibody, human IgG1, kappa, V domains shown)
VH: EVQLLESGGGLVQPGGSLRLSCAASGFTFSTYAMGWVRQAPGKGLEFVSAIRNDGSWTGYGAAVKGRFTISRDNSKNTVYLQMNSLRAEDTAVYYCAKYTGSSGGSIGAWGQGTLVTVSS
VL: SYELTQPPSVSVSPGQTARITCSGGNRNYYYGWYQQKPGQAPVTVIYANDKRPSGIPERFSGSYSGNTTTLTISGVQAEDEADYYCGTADTGKYVFGGGTKLTVLG
B3: humanized anti-PAD4 antibody derived from G8, VH H4.15 / VL L4.17 (antibody, human IgG1, kappa, V domains shown)
VH: EVQLLESGGGLVQPGGSLRLSCAASGFTFSTYAMGWVRQAPGKGLEFVSAIRNDGSWTGYGAAVKGRFTISRDNSKNTVYLQMNSLRAEDTAVYYCAKYTGSSGGSIGAWGQGTLVTVSS
VL: SYELTQPPSVSVSPGQTARITCSGGNRNYYYGWYQQKPGQAPVTVIYANDKRPSGIPERFSGSTSGNTTTLTISGVQAEDEADYYCGTADTGKYVFGGGTKLTVLG
B4: humanized anti-PAD4 antibody derived from G8, VH H4.15 / VL L4.29 (antibody, human IgG1, kappa, V domains shown)
VH: EVQLLESGGGLVQPGGSLRLSCAASGFTFSTYAMGWVRQAPGKGLEFVSAIRNDGSWTGYGAAVKGRFTISRDNSKNTVYLQMNSLRAEDTAVYYCAKYTGSSGGSIGAWGQGTLVTVSS
VL: SYELTQPPSVSVSPGQTARITCSGGNRNYYYGWYQQKPGQAPVTVIYANDKRPSGIPERFSGSNSGSTTTLTISGVQAEDEADYYCGTADTGKYVFGGGTKLTVLG
B5: humanized anti-PAD4 antibody derived from G8, VH H4.32 / VL L4.00 (antibody, IgG1, V domains shown)
VH: EVQLLESGGGLVQPGGSLRLSCAASGFTFSTYAMGWVRQAPGKGLEFVAAIRNDGSWTGYGAAVKGRVTISRDNSKNTVYLQMNSLRAEDTAVYYCAKYTGSSGGSIGAWGQGTLVTVSS
VL: SYELTQPPSVSVSPGQTARITCSGGNRNYYYGWYQQKPGQAPVLVIYANDKRPSGIPERFSGSSSGTTVTLTISGVQAEDEADYYCGTADTGKYVFGGGTKLTVLG
B6: humanized anti-PAD4 antibody derived from G8, VH H4.32 / VL L4.06 (antibody, IgG1, V domains shown)
VH: EVQLLESGGGLVQPGGSLRLSCAASGFTFSTYAMGWVRQAPGKGLEFVAAIRNDGSWTGYGAAVKGRVTISRDNSKNTVYLQMNSLRAEDTAVYYCAKYTGSSGGSIGAWGQGTLVTVSS
VL: SYELTQPPSVSVSPGQTARITCSGGNRNYYYGWYQQKPGQAPVTVIYANDKRPSGIPERFSGSYSGNTTTLTISGVQAEDEADYYCGTADTGKYVFGGGTKLTVLG
B7: humanized anti-PAD4 antibody derived from G8, VH H4.32 / VL L4.17 (antibody, IgG1, V domains shown)
VH: EVQLLESGGGLVQPGGSLRLSCAASGFTFSTYAMGWVRQAPGKGLEFVAAIRNDGSWTGYGAAVKGRVTISRDNSKNTVYLQMNSLRAEDTAVYYCAKYTGSSGGSIGAWGQGTLVTVSS
VL: SYELTQPPSVSVSPGQTARITCSGGNRNYYYGWYQQKPGQAPVTVIYANDKRPSGIPERFSGSTSGNTTTLTISGVQAEDEADYYCGTADTGKYVFGGGTKLTVLG
B8: humanized anti-PAD4 antibody derived from G8, VH H4.32 / VL L4.29 (antibody, IgG1, V domains shown)
VH: EVQLLESGGGLVQPGGSLRLSCAASGFTFSTYAMGWVRQAPGKGLEFVAAIRNDGSWTGYGAAVKGRVTISRDNSKNTVYLQMNSLRAEDTAVYYCAKYTGSSGGSIGAWGQGTLVTVSS
VL: SYELTQPPSVSVSPGQTARITCSGGNRNYYYGWYQQKPGQAPVTVIYANDKRPSGIPERFSGSNSGSTTTLTISGVQAEDEADYYCGTADTGKYVFGGGTKLTVLG
B9: humanized anti-PAD4 antibody derived from H7, VH H4.15 / VL L4.00 (antibody, IgG1, V domains shown)
VH: EVQLLESGGGLVQPGGSLRLSCAASGFTFSTYAMGWVRQAPGKGLEFVSAIRNDGSWTGYGAAVKGRFTISRDNSKNTVYLQMNSLRAEDTAVYYCAKYTGSSGGSIGAWGQGTLVTVSS
VL: SYELTQPPSVSVSPGQTARITCSGGSGRYYYGWYQQKPGQAPVLVIYSSTHRPSGIPERFSGSSSGTTVTLTISGVQAEDEADYYCGTADSSSYVFGGGTKLTVLG
B10: humanized anti-PAD4 antibody derived from H7, VH H4.15 / VL L4.06 (antibody, IgG1, V domains shown)
VH: EVQLLESGGGLVQPGGSLRLSCAASGFTFSTYAMGWVRQAPGKGLEFVSAIRNDGSWTGYGAAVKGRFTISRDNSKNTVYLQMNSLRAEDTAVYYCAKYTGSSGGSIGAWGQGTLVTVSS
VL: SYELTQPPSVSVSPGQTARITCSGGSGRYYYGWYQQKPGQAPVTVIYSSTHRPSGIPERFSGSYSGNTTTLTISGVQAEDEADYYCGTADSSSYVFGGGTKLTVLG
B11: humanized anti-PAD4 antibody derived from H7, VH H4.15 / VL L4.15 (antibody, IgG1, V domains shown)
VH: EVQLLESGGGLVQPGGSLRLSCAASGFTFSTYAMGWVRQAPGKGLEFVSAIRNDGSWTGYGAAVKGRFTISRDNSKNTVYLQMNSLRAEDTAVYYCAKYTGSSGGSIGAWGQGTLVTVSS
VL: SYELTQPPSVSVSPGQTARITCSGGSGRYYYGWYQQKPGQAPVTVIYSSTHRPSGIPERFSGSNSGNTTTLTISGVQAEDEADYYCGTADSSSYVFGGGTKLTVLG
B12: humanized anti-PAD4 antibody derived from H7, VH H4.15 / VL L4.17 (antibody, IgG1, V domains shown)
VH: EVQLLESGGGLVQPGGSLRLSCAASGFTFSTYAMGWVRQAPGKGLEFVSAIRNDGSWTGYGAAVKGRFTISRDNSKNTVYLQMNSLRAEDTAVYYCAKYTGSSGGSIGAWGQGTLVTVSS
VL: SYELTQPPSVSVSPGQTARITCSGGSGRYYYGWYQQKPGQAPVTVIYSSTHRPSGIPERFSGSTSGNTTTLTISGVQAEDEADYYCGTADSSSYVFGGGTKLTVLG
B13: humanized anti-PAD4 antibody derived from H7, VH H4.32 / VL L4.00 (antibody, IgG1, V domains shown)
VH: EVQLLESGGGLVQPGGSLRLSCAASGFTFSTYAMGWVRQAPGKGLEFVAAIRNDGSWTGYGAAVKGRVTISRDNSKNTVYLQMNSLRAEDTAVYYCAKYTGSSGGSIGAWGQGTLVTVSS
VL: SYELTQPPSVSVSPGQTARITCSGGSGRYYYGWYQQKPGQAPVLVIYSSTHRPSGIPERFSGSSSGTTVTLTISGVQAEDEADYYCGTADSSSYVFGGGTKLTVLG
B14: humanized anti-PAD4 antibody derived from H7, VH H4.32 / VL L4.06 (antibody, IgG1, V domains shown)
VH: EVQLLESGGGLVQPGGSLRLSCAASGFTFSTYAMGWVRQAPGKGLEFVAAIRNDGSWTGYGAAVKGRVTISRDNSKNTVYLQMNSLRAEDTAVYYCAKYTGSSGGSIGAWGQGTLVTVSS
VL: SYELTQPPSVSVSPGQTARITCSGGSGRYYYGWYQQKPGQAPVTVIYSSTHRPSGIPERFSGSYSGNTTTLTISGVQAEDEADYYCGTADSSSYVFGGGTKLTVLG
B15: humanized anti-PAD4 antibody derived from H7, VH H4.32 / VL L4.15 (antibody, IgG1, V domains shown)
VH: EVQLLESGGGLVQPGGSLRLSCAASGFTFSTYAMGWVRQAPGKGLEFVAAIRNDGSWTGYGAAVKGRVTISRDNSKNTVYLQMNSLRAEDTAVYYCAKYTGSSGGSIGAWGQGTLVTVSS
VL: SYELTQPPSVSVSPGQTARITCSGGSGRYYYGWYQQKPGQAPVTVIYSSTHRPSGIPERFSGSNSGNTTTLTISGVQAEDEADYYCGTADSSSYVFGGGTKLTVLG
B16: humanized anti-PAD4 antibody derived from H7, VH H4.32 / VL L4.17 (antibody, IgG1, V domains shown)
VH: EVQLLESGGGLVQPGGSLRLSCAASGFTFSTYAMGWVRQAPGKGLEFVAAIRNDGSWTGYGAAVKGRVTISRDNSKNTVYLQMNSLRAEDTAVYYCAKYTGSSGGSIGAWGQGTLVTVSS
VL: SYELTQPPSVSVSPGQTARITCSGGSGRYYYGWYQQKPGQAPVTVIYSSTHRPSGIPERFSGSTSGNTTTLTISGVQAEDEADYYCGTADSSSYVFGGGTKLTVLG

Legend:
[1] = molecular target: full-length recombinant human PAD4 (human) (UniProt Q9UM07); assay: ELISA, immobilized human PAD4
[2] = molecular target: full-length recombinant human PAD4 (human) (UniProt Q9UM07); assay: ELISA, coated human PAD4

Binder | binding [1] | binding [2]
B1 | binds | binds
B2 | binds | binds
B3 | binds | binds
B4 | binds | binds
B5 | binds | binds
B6 | binds | binds
B7 | binds | binds
B8 | binds | binds
B9 | binds | binds
B10 | binds | binds
B11 | binds | binds
B12 | binds | binds
B13 | binds | binds
B14 | binds | binds
B15 | binds | binds
B16 | binds | binds
